The values that follow come from the supplement of paper PMC11732987, “Enantioselective OTUD7B fragment discovery through chemoproteomics screening and high-throughput optimisation” (Communications Chemistry, 2025).

By UniProt entry, the sequences of proteins in these tests, tags left out. Where a name states a change or a piece, a line headed by the entry shows the natural chain unless it says otherwise. Residues count along the entry.
UniProt Q9Y6D5: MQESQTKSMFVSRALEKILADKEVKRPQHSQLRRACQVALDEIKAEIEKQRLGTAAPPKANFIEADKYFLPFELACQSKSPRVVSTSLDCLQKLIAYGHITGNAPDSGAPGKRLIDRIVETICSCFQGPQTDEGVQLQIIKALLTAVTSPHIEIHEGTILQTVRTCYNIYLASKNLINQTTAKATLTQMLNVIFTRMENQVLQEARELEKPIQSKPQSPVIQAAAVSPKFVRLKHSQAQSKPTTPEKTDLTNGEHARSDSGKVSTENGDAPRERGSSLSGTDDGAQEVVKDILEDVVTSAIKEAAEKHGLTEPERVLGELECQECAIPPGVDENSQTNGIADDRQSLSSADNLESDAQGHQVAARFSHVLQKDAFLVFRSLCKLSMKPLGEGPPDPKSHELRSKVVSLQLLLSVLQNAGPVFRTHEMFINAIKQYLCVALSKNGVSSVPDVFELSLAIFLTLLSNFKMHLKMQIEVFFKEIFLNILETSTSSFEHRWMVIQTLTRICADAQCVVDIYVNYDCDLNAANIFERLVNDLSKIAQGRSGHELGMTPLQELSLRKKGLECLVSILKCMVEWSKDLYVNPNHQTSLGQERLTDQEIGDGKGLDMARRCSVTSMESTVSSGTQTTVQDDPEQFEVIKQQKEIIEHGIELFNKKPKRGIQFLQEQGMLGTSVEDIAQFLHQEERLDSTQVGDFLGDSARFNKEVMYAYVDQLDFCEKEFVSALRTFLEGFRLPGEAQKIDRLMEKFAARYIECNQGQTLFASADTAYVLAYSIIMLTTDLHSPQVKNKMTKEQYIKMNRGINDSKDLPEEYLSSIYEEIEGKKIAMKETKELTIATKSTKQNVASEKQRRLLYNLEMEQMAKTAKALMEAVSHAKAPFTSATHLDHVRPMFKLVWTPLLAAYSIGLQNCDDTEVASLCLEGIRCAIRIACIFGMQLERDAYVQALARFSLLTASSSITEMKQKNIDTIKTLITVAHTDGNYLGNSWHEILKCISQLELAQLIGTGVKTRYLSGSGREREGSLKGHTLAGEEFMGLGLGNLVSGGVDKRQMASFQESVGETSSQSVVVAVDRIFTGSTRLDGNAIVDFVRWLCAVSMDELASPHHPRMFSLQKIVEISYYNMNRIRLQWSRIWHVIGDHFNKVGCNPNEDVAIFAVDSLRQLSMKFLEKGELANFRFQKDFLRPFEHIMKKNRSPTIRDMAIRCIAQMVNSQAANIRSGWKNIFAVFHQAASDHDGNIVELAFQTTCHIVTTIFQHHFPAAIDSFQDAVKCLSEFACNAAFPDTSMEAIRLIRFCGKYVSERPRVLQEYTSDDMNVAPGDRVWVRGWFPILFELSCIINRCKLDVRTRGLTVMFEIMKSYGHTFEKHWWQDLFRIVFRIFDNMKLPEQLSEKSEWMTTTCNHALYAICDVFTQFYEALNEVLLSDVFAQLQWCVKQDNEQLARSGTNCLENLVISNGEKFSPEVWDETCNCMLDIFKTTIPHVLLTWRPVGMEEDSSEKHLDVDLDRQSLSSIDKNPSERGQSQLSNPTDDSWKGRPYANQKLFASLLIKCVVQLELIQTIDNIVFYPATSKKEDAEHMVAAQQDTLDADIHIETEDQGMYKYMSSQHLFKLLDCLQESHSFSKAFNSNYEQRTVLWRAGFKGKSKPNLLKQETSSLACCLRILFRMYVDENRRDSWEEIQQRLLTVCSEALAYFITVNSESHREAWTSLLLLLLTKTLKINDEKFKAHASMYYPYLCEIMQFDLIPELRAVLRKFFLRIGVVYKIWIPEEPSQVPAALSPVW
UniProt Q9NUS5: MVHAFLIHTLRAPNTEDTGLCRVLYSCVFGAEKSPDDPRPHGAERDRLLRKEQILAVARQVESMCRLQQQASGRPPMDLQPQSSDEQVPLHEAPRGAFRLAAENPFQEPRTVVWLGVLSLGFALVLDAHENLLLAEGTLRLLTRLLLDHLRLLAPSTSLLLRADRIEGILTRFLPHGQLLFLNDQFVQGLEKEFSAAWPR
UniProt P48444: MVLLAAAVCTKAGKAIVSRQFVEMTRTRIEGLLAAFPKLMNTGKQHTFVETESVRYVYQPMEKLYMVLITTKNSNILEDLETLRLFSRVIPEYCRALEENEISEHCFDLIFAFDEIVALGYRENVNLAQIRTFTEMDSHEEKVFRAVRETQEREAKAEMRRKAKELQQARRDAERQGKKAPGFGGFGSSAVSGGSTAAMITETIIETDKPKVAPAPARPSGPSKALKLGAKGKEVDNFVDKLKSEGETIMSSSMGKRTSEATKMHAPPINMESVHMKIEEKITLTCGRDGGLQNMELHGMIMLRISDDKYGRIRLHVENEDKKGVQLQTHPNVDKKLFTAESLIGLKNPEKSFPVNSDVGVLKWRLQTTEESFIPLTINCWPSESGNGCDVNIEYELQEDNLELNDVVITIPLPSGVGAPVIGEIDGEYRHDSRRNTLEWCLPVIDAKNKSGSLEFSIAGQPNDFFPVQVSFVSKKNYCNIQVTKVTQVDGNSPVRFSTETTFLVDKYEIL
UniProt Q92625: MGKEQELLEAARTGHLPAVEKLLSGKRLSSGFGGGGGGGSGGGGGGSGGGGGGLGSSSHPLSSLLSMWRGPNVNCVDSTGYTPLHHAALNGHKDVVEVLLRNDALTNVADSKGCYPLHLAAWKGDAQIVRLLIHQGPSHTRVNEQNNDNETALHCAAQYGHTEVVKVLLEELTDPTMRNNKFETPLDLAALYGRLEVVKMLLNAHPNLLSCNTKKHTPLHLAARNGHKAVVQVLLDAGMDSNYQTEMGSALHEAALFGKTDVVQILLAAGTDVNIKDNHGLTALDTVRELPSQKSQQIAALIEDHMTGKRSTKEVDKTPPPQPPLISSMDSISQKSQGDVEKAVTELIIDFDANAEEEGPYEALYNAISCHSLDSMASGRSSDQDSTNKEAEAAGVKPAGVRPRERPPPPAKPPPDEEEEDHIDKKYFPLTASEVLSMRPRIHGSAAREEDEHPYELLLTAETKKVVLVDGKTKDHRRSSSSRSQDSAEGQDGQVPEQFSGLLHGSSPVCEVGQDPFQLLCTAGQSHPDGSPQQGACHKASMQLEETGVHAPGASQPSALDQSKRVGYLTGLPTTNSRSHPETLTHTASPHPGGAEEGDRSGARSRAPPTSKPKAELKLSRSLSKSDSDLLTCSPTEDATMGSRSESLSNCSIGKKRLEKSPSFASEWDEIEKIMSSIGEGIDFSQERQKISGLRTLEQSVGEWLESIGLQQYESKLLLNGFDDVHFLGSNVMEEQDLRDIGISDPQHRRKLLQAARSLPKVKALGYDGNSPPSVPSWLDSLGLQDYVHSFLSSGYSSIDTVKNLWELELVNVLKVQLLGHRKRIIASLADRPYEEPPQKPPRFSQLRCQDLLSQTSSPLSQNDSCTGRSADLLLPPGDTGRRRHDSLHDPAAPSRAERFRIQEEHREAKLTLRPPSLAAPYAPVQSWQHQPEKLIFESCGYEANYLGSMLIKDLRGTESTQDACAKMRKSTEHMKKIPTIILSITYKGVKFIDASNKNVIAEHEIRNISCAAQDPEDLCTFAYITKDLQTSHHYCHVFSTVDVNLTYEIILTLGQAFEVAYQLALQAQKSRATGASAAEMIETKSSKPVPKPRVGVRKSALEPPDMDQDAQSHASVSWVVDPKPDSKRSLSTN
UniProt Q9H0F7: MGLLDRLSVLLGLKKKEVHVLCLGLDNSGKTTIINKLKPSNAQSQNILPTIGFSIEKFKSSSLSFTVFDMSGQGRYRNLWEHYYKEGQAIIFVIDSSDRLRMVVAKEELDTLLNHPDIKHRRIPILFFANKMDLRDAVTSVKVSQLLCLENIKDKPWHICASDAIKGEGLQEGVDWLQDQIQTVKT
UniProt Q9Y2T2: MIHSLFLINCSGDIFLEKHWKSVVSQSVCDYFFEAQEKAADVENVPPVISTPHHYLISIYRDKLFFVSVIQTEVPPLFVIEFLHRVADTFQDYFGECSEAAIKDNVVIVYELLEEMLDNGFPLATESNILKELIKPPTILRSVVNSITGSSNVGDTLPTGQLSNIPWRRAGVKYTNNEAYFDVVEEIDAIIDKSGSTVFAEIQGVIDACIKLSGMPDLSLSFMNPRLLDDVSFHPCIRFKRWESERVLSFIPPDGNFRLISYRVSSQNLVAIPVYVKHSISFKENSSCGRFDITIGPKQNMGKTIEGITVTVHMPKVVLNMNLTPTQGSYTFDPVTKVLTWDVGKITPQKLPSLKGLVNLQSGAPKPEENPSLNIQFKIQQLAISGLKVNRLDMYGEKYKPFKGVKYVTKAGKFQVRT
UniProt Q14155: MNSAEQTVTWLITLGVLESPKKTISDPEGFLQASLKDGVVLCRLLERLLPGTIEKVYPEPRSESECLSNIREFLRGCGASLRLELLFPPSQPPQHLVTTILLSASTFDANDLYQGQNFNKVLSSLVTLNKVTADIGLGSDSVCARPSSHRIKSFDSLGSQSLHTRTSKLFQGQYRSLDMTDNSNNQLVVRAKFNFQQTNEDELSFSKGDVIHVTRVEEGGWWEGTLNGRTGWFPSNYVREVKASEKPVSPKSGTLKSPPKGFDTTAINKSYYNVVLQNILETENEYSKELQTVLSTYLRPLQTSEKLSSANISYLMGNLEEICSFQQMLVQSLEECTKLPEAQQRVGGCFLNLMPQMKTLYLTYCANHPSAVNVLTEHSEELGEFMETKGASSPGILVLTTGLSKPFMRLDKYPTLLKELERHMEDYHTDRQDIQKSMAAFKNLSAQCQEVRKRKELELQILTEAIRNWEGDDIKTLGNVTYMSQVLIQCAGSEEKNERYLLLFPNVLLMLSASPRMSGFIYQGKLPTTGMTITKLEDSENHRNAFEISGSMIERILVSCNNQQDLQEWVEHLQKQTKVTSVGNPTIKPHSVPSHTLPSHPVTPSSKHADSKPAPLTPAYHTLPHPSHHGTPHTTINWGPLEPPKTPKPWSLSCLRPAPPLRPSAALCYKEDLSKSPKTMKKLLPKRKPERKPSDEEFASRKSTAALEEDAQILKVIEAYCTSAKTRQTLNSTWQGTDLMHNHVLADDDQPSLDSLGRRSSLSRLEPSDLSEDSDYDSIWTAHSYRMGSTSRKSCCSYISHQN
UniProt Q7Z5H3: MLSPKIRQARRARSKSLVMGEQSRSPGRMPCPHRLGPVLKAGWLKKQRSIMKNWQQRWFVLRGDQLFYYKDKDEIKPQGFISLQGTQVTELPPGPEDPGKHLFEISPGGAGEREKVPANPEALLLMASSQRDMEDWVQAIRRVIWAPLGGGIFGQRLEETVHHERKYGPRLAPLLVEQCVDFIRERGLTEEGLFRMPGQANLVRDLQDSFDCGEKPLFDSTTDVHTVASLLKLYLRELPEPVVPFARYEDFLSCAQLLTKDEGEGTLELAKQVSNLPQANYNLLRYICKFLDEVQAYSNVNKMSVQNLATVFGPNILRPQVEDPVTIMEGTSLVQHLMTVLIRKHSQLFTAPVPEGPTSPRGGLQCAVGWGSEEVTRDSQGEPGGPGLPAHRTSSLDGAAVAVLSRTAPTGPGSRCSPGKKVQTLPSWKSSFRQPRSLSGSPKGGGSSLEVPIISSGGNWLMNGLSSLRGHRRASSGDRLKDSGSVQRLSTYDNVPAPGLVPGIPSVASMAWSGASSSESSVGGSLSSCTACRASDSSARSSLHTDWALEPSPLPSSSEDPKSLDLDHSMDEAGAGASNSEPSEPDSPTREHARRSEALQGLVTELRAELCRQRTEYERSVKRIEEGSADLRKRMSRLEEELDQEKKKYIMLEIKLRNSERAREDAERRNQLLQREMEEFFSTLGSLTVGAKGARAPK
UniProt Q96AK3: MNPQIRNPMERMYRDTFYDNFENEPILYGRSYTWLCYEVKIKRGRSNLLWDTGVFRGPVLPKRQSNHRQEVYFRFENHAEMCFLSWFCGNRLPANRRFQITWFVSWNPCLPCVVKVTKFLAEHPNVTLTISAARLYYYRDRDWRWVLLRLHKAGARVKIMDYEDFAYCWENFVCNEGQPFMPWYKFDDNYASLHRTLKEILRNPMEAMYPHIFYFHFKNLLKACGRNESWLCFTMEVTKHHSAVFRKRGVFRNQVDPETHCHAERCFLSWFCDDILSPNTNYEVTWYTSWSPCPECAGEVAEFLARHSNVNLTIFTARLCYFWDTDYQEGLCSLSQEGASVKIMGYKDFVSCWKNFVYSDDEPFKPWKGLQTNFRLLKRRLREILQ
UniProt P32121, whole entry, looked up: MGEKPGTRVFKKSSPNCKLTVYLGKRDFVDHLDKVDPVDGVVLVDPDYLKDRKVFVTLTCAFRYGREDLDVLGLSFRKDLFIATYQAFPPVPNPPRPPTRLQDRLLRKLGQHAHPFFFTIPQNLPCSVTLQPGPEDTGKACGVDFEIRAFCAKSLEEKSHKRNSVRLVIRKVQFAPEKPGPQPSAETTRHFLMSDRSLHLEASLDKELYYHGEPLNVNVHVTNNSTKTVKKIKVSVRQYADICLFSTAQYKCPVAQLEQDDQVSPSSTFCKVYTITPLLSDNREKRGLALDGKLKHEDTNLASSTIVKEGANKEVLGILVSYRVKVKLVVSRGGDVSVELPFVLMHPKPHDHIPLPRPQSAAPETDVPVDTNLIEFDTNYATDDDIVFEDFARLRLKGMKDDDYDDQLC
UniProt O14617, 190-212: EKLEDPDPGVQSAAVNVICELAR

Some of the results follow. The data scatter; read single values as rough.

Compound in assay [1]: ClCC(=O)N[C@@H]1CCCc2ccccc12
Description: log2 mean competition ratio of IA-DTB cysteine labelling (DMSO/compound) (log2 ratio); higher = stronger cysteine engagement by compound. Particulars: treatment time: 4 h, cell line lysate: HEK293T. The protocol: (§1)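 IA-DTB competitive cysteine chemoproteomics in HEK293T RIPA lysate. Lysates were treated with compound 29 or 30 at 50 or 200 µM for 4 h, then IA-DTB (500 µM, 1 h), trypsin-digested, NeutrAvidin-enriched and analysed by diaPASEF. Competition ratio = intensity DMSO / intensity compound (n=4 treated, n=64 DMSO); binding: mean log2 CR ≥ 1 and p ≤ 0.05 plus QC filters. Target is the cysteine site.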

Compound in assay [2]: ClCC(=O)N[C@H]1CCCc2ccccc12
The description is as above. Particulars: treatment time: 4 h, cell line lysate: HEK293T. How it is done: as §1

In the case of APC C110 (UniProt P25054), the “log2 mean competition ratio” value in assay [1] (50 µM) is -0.025; in assay [1] (200 µM), -0.0468; in assay [2] (50 µM) it was 0.222; in assay [2] (200 µM), -0.119.

In the case of ARFGEF2 C1450 (UniProt Q9Y6D5), the “log2 mean competition ratio” value was 0.0216 in assay [1] (50 µM), 0.00509 in assay [1] (200 µM), -0.0358 in assay [2] (50 µM) and -0.00364 in assay [2] (200 µM).

With AP5S1 C21 (UniProt Q9NUS5), the “log2 mean competition ratio” value was -0.0556 in assay [1] (50 µM), 0.0572 in assay [1] (200 µM), -0.233 in assay [2] (50 µM) and -0.07 in assay [2] (200 µM).

Consider ARCN1 C286 (UniProt P48444), for which the “log2 mean competition ratio” value in assay [1] (50 µM) is -0.148; in assay [1] (200 µM) it was -0.0577; in assay [2] (50 µM), -0.0716; in assay [2] (200 µM), -0.105.

For the target ARID3B C304 (UniProt Q8IVW6), the “log2 mean competition ratio” value in assay [1] (50 µM) is 0.0775; in assay [1] (200 µM) it was -0.235; in assay [2] (50 µM), -0.0655; in assay [2] (200 µM), -0.26.

ANKS1A C965 (UniProt Q92625): the “log2 mean competition ratio” value in assay [1] (50 µM) is -0.198; in assay [1] (200 µM) it was -0.0902; in assay [2] (50 µM), -0.157; in assay [2] (200 µM), 0.0915.

As for ARL6 C148 (UniProt Q9H0F7), the “log2 mean competition ratio” value in assay [1] (50 µM) came out at 0.304; in assay [1] (200 µM), 0.319; in assay [2] (50 µM), 0.051; in assay [2] (200 µM), 0.0509.

Take AP3M1 C29 (UniProt Q9Y2T2): the “log2 mean competition ratio” value is -0.141 in assay [1] (50 µM), 0.0805 in assay [1] (200 µM), 0.177 in assay [2] (50 µM) and 0.0266 in assay [2] (200 µM).

Consider ARHGEF7 C448 (UniProt Q14155), for which the “log2 mean competition ratio” value in assay [1] (50 µM) is -0.301; in assay [1] (200 µM) it was -0.287; in assay [2] (50 µM), -0.215; in assay [2] (200 µM), -0.328.

Take ANKRD28 C85 (UniProt O15084): the “log2 mean competition ratio” value in assay [1] (50 µM) is -0.109; in assay [1] (200 µM), -0.397; in assay [2] (50 µM), -0.604; in assay [2] (200 µM), -0.446.

Take ARHGAP22 C366 (UniProt Q7Z5H3): the “log2 mean competition ratio” value was 0.368 in assay [1] (50 µM), 0.164 in assay [1] (200 µM), -0.438 in assay [2] (50 µM) and 0.292 in assay [2] (200 µM).

APOBEC3D C261 (UniProt Q96AK3): the “log2 mean competition ratio” value is -0.18 in assay [1] (50 µM), -0.143 in assay [1] (200 µM), -0.0827 in assay [2] (50 µM) and -0.164 in assay [2] (200 µM).

On to APPL2 C412 (UniProt Q8NEU8), for which the “log2 mean competition ratio” value in assay [1] (50 µM) was -0.081; in assay [1] (200 µM) it was -0.0668; in assay [2] (50 µM), -0.0826; in assay [2] (200 µM) it was -0.0216.

ARRB2 C141 (UniProt P32121): the “log2 mean competition ratio” value was -0.241 in assay [1] (50 µM), 0.00972 in assay [1] (200 µM), -0.479 in assay [2] (50 µM) and 0.00323 in assay [2] (200 µM).

Regarding AP3D1 C208 (UniProt O14617), the “log2 mean competition ratio” value in assay [1] (50 µM) was -0.192; in assay [1] (200 µM) it was -0.0424; in assay [2] (50 µM) it was -0.19; in assay [2] (200 µM) it was -0.126.

For ARFGAP2 C97 (UniProt Q8N6H7), the “log2 mean competition ratio” value in assay [1] (50 µM) is -0.135; in assay [1] (200 µM), 0.152; in assay [2] (50 µM), -0.151; in assay [2] (200 µM), 0.169.
